Data published in PMC6394990, “Detailed characterization of the solution kinetics and thermodynamics of biotin, biocytin and HABA binding to avidin and streptavidin” (PLoS ONE, 2019).

Assays:
Type in all cases: physicochemical
[1] = Intrinsic lifetime, dynamic quantum yield and fraction of non-statically quenched molecules, unbound probe
[2] = Steady-state anisotropy (rss), unbound probe; conditions: 20°C
Experimental: (§1) The lifetimes (τ), steady state anisotropies (rss), time-resolved anisotropies (rt) and quantum yields (QY) of the complexes (at 20 ± 0.1°C and pH 8) were collected with a dye-labeled B7 probe concentration of 20–40 nM and 1040–2080 nM of either protein (AV or SAV) to ensure that only one binding site in the tetramer was filled with a ligand (AB1 filling model).
The rss measurements were collected using the Giblin-Parkhurst modification of the Wampler-Desa method as described previously. The fluorescence signal was detected in a model A-1010 Alphascan fluorimeter (Photon Technologies, Inc., Birmingham, NJ) equipped with an R928 PMT (Hamamatsu, Bridgewater, NJ). The excitation was provided by an Ar^+ ion laser (Coherent Innova 70–4 Argon, Santa Clara, CA) at 488 nm and 5–10 mW of power incident on the sample. […] The fluorimeter G factor was determined using a film polarizer and analyzer with an excitation at 488 nm provided by a xenon arc lamp (model A1010, Photon Technologies Inc, Princeton, NJ). The dissociation reactions of dye-labeled B7 and protein complexes were monitored by fluorescence changes and were also collected in the fluorimeter described above.

[3] = Time-resolved anisotropy, cone angle, unbound probe; conditions: 20°C
Experimental: The lifetimes were collected in a FluoTime100 fluorescence spectrometer (PicoQuant, GmbH, Berlin, Germany) with the excitation light source provided by a picosecond pulsed diode laser (PicoQuant, GmbH, Berlin, Germany) at 470 nm and 20 MHz. The emission was collected at 520 nm through a non-fluorescing 520 nm interference filter (Oriel Corp., Stratford, CT) followed by a liquid filter of 1cm path length containing 24 mM acetate buffered dichromate at pH 4, between the sample and detector to eliminate traces of excitation light. The fluorescence decays were fit by a nonlinear least-squares minimization based on the Marquardt algorithm embedded in the Fluofit software (PicoQuant GmbH). […] The PicoQuant G factor was calculated according to: G = ∫HV(t)dt/∫HH(t)dt, where HV(t) and HH(t) were the decays collected with the emission polarizer selecting vertical and horizontal E-vector passing orientations, respectively, and the excitation polarizer set at horizontally position. […]
In a simple model, the transition moment is assumed to wobble within a cone of semi-apical angle Ω [59], where the cone axis is normal to the surface of a sphere that corresponds to the macromolecule. The angle Ω is calculated from Eq 14.

[4] = Absorbance and fluorescence emission spectra, unbound probe
Experimental: as §1
(§2) The QY values were obtained by using a reference fluorophore of known quantum yield and were calculated according to Parker and Rees, where the reference dye was fluorescein in 0.1N sodium hydroxide solution [46]. The emission fluorescence scans were collected from 480 nm to 700 nm with the excitation light set at 460 nm provided by the xenon arc lamp described above. These measurements were made on the AB1 complexes at high protein concentration.
Supplementary file pone.0204194.s001.docx: S1 Fig Absorbance spectra of dye-labeled B7 probes and respective complexes with AV and SAV. […] The spectra are normalized to the calculated molar absorptivies. […] The labeled probes and protein concentrations were 1 μM and 10 μM, respectively. (DOCX) Click here for additional data file.
Supplementary file pone.0204194.s002.docx: S2 Fig Fluorescence emission spectra of dye-labeled B7 and respective complexes with AV and SAV. […] The probe and protein concentrations were 20 nM and 1040 nM (AB1 filling model), respectively. (DOCX) Click here for additional data file.

[5] = Quantum yields (QY), unbound probe
Experimental: as §1, §2

[6] = Fluorescence lifetimes, unbound probe; conditions: 20°C, pH 8
Experimental: as §1
The lifetimes were collected in a FluoTime100 fluorescence spectrometer (PicoQuant, GmbH, Berlin, Germany) with the excitation light source provided by a picosecond pulsed diode laser (PicoQuant, GmbH, Berlin, Germany) at 470 nm and 20 MHz. The emission was collected at 520 nm through a non-fluorescing 520 nm interference filter (Oriel Corp., Stratford, CT) followed by a liquid filter of 1cm path length containing 24 mM acetate buffered dichromate at pH 4, between the sample and detector to eliminate traces of excitation light. The fluorescence decays were fit by a nonlinear least-squares minimization based on the Marquardt algorithm embedded in the Fluofit software (PicoQuant GmbH). […] The PicoQuant G factor was calculated according to: G = ∫HV(t)dt/∫HH(t)dt, where HV(t) and HH(t) were the decays collected with the emission polarizer selecting vertical and horizontal E-vector passing orientations, respectively, and the excitation polarizer set at horizontally position.

SMILES | Dynamic Quantum Yield Φ [1] | Fraction of Non-Statically Quenched Dye 1-S [1] | Natural Lifetime τ° [1] | Steady State Anisotropy rss [2] | Cone Angle Ω [3] [degrees] | Maximum Absorbance [4] [nm] | Maximum Emission [4] [nm] | Quantum Yield QY [5] | Lifetime τ [6] [ns]
O=C(CCCC[C@@H]1SC[C@@H]2NC(=O)N[C@@H]21)NCCNC(=O)c1ccc(-c2c3ccc(=O)cc-3oc3cc(O)ccc23)c(C(=O)O)c1 [BFl, Biotin-4-fluorescein] | 0.81 ± 0.04 | 0.65 ± 0.06 | 5.2 ± 0.2 | 0.021 ± 0.002 | 90 | 494 | 530 | 0.52 ± 0.02 | 4.03 ± 0.01
NC(CCCCNC(=O)CCCC[C@@H]1SC[C@@H]2NC(=O)N[C@@H]21)C(=O)NCCCCCNC(=O)c1ccc(-c2c3cc(F)c(=O)cc-3oc3cc(O)c(F)cc23)c(C(=O)O)c1 (stereo partly drawn) [BcO, Oregon green 488 Biocytin] | 0.85 ± 0.02 | 1.00 ± 0.02 | 4.4 ± 0.1 | 0.023 ± 0.002 | 90 | 495 | 523 | 0.91 ± 0.02 | 3.75 ± 0.04
